No constants are given. Whether binding was seen depends on the method and setting. Some binding calls cover weakened binding; strength is not graded here. Ends that are not written are not given here.
Tests used:
human P2X4 peptide [1] = biological target: T1, human P2X4 peptide (human, UniProt Q99571 301-313); test: ELISA
T1 construct: range 301-313; The range 301-313 is stated for rat P2X4R, with the human peptide as its 'human form'; also called human Target P2X4R peptide; thirteen amino acid extracellular peptide fragment of human P2X4 receptor
T1 peptide (looked up): RDLAGNEQRTLIK

Amino acid sequences for entries named in this document (tags omitted). A change or cut given only in a name is not applied to a line headed by its entry.
UniProt Q99571: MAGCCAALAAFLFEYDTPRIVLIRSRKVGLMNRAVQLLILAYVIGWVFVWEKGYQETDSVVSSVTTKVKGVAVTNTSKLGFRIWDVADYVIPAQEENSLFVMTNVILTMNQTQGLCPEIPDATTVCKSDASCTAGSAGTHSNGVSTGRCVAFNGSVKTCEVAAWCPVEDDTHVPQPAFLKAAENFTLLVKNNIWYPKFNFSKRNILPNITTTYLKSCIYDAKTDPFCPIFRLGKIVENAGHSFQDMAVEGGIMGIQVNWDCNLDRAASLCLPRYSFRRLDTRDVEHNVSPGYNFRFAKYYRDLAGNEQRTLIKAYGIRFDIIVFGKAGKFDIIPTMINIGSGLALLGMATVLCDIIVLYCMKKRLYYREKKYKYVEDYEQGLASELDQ

human P2X4 peptide [2] = biological target: T1, human P2X4 peptide; test: indirect ELISA of purified scFv on human P2X4 peptide, concentration not shown
human P2X4 peptide [3] = biological target: T1, human P2X4 peptide; test: indirect ELISA, wells coated with human P2X4 peptide (200 ng/well), HRP-conjugated mouse anti-His tag antibody, triplicate wells
[4] = biological target: T2, rat P2X4R extracellular peptide (a.a. 301-313, C-…) (rat); test: ribosome display selection / ELISA
T2 sequence (peptide, N-terminal biotin tag; printed with a leading 'C-'): RDLAGKEQRTLTK

[5] = biological target: T2, rat P2X4R extracellular peptide (a.a. 301-313, C-…) (rat); test: ELISA
[6] = biological target: T2, rat P2X4R extracellular peptide (a.a. 301-313, C-…) (rat); test: ELISA (FIG. 2D)
[7] = biological target: T2, rat P2X4R extracellular peptide (a.a. 301-313, C-…) (rat); test: indirect ELISA titration on P2X4R peptide
[8] = biological target: T2, rat P2X4R extracellular peptide (a.a. 301-313, C-…) (rat); test: indirect ELISA, single condition, scFv concentration not shown
[9] = biological target: T2, rat P2X4R extracellular peptide (a.a. 301-313, C-…) (rat); test: indirect ELISA
[10] = biological target: T2, rat P2X4R extracellular peptide (a.a. 301-313, C-…) (rat); test: indirect ELISA of purified scFv on rat P2X4 peptide, concentration not shown

Measured: binding

B1: humanized P2X4R scFv HC1-LC1 (scFv)
scFv: MAEVKLVESGGGLVQPGGSLRLSCATSGFTFTDYYMSWVRQPPGKALEWLGFIRNKANGYTTEYSASVKGRFTISRDNSQSILYLQMNTLRAEDSATYYCARWEGDLLYAMDYWGQGTSVTVSSGGGGSGGGGSGGGGSDIQMTQTTSSLSASLGDRVTISCSASQGISNYLNWYQQKPDGTVKLLIYYTSSLHSGVPSRFSGSGSGTDYSLTISNLEQEDIATYYCQQYSKLPWTFGGGTKLEIKRAAALEHHHHHH
notes: HC-(G4S)3-LC with C-terminal His tag, expressed in E. coli
binds: human P2X4 peptide [1] | human P2X4 peptide [2] | human P2X4 peptide [3]

B2: humanized P2X4R scFv HC3-LC1 (scFv)
scFv: MAEVQLVESGGGLVQPGGSLRLSCATSGFTFTDYYMHWVRQAPGKGLEWVGFIRNKANGYTTEYSASVKGRFTISRDNSKNTLYLQMNSLRAEDTAVYYCARWEGDLLYAMDYWGQGTLVTVSSGGGGSGGGGSGGGGSDIQMTQTTSSLSASLGDRVTISCSASQGISNYLNWYQQKPDGTVKLLIYYTSSLHSGVPSRFSGSGSGTDYSLTISNLEQEDIATYYCQQYSKLPWTFGGGTKLEIKRAAALEHHHHHH
notes: as for B1
binds: human P2X4 peptide [1] | human P2X4 peptide [2] | human P2X4 peptide [3]

B3: P2X4-scFv95 (parental murine anti-P2X4R scFv) (scFv)
scFv: MAEVKLVESGGGLVQPGGSLRLSCATSGFTFTDYYMSWVRQPPGKALEWLGFIRNKANGYTTEYSASVKGRFTISRDNSQSILYLQMNTLRAEDSATYYCARWEGDLLYAMDYWGQGTSVTVSSGGGGSGGGGSGGGGGSGGGGSDIQMTQTTSSLSASLGDRVTISCSASQGISNYLNWYQQKPDGTVKLLIYYTSSLHSGVPSRFSGSGSGTDYSLTISNLEPEDIATYYCQQYSKLPWTFGGGTKLEIKRADAAALEHHHHHH
notes: also called mscFv95; clone 95
binds: [4] | human P2X4 peptide [1] | [5] | human P2X4 peptide [2] | [6] | human P2X4 peptide [3] | [7] | [8] | [9] | [10]

B4: P2X4-scFv12 (scFv)
scFv: MADVKLQESGPGLVKPSQSLSLTCSVTGYSITSGYYWNWIRQFPGNKLEWMGYISYDGSNNYNPSLKNRISITRDTSKNQFFLKLNSVTTEDTATYYCARSDYDLYYYAMDYWGQGTSVTVSSAKTTPPSGGGGSGGGGSGGGGGSGGGGSDIVMTQSPATLSVTPGDRVSLSCRASQSISDYLHWYQQKSHESPRLLIKYASQSISGIPSRFSGSGSGSDFTLSINSVEPEDVGVYYCQNGHSFPLTFGSGTKLEIKRADAAALEHHHHHH
binds: [4] | [7] | [8]

B5: humanized P2X4R scFv HC2-LC3 (scFv)
scFv: MAQVQLQESGPGLVKPSQTLSLTCTTSGFTFTDYYMSWVRQAPGKGLEWIGFIRNKANGYTTEYSASVKGRFTISRDNSKNQFSLRLSSVTAADTAVYYCARWEGDLLYAMDYWGQGTTVTVSSGGGGSGGGGSGGGGSDIQMTQSPSSLSASVGDRVTITCRASQGISNYLNWYQQKPGKAPKLLIYYTSSLHSGVPSRFSGSGSGTDFTLTISSLQPEDFAYYYCQQYSKLPWTFGGGTKVEIKRAAALEHHHHHH
notes: HC-(G4S)3-LC with C-terminal His tag
binds: human P2X4 peptide [1] | human P2X4 peptide [2] | human P2X4 peptide [3]

B6: humanized P2X4R scFv HC2-LC1 (scFv)
scFv: MAQVQLQESGPGLVKPSQTLSLTCTTSGFTFTDYYMSWVRQAPGKGLEWIGFIRNKANGYTTEYSASVKGRFTISRDNSKNQFSLRLSSVTAADTAVYYCARWEGDLLYAMDYWGQGTTVTVSSGGGGSGGGGSGGGGSDIQMTQTTSSLSASLGDRVTISCSASQGISNYLNWYQQKPDGTVKLLIYYTSSLHSGVPSRFSGSGSGTDYSLTISNLEQEDIATYYCQQYSKLPWTFGGGTKLEIKRAAALEHHHHHH
notes: as for B1
binds: human P2X4 peptide [1] | human P2X4 peptide [2] | human P2X4 peptide [3]

B7: humanized hP2X4R scFv HC3-LC3 (scFv)
scFv: MAEVQLVESGGGLVQPGGSLRLSCATSGFTFTDYYMHWVRQAPGKGLEWVGFIRNKANGYTTEYSASVKGRFTISRDNSKNTLYLQMNSLRAEDTAVYYCARWEGDLLYAMDYWGQGTLVTVSSGGGGSGGGGSGGGGSDIQMTQSPSSLSASVGDRVTITCRASQGISNYLNWYQQKPGKAPKLLIYYTSSLHSGVPSRFSGSGSGTDFTLTISSLQPEDFAYYYCQQYSKLPWTFGGGTKVEIKRAAALEHHHHHH
notes: HC-(G4S)3-LC with C-terminal His tag; also called hP2X4R HC3-LC3 scFv; HC3 LC3 hP2X4R scFv
binds: human P2X4 peptide [1] | human P2X4 peptide [2] | human P2X4 peptide [3]

Reference: patent US20250059273A1 (UNM RAINFOREST INNOVATIONS, published 2025)
